Our source for the binding values is article PMC10341622.

Sequences of proteins named here, by UniProt entry; tags and fusion partners are left off. Residues count along the entry.
UniProt P04977, residues 35-269: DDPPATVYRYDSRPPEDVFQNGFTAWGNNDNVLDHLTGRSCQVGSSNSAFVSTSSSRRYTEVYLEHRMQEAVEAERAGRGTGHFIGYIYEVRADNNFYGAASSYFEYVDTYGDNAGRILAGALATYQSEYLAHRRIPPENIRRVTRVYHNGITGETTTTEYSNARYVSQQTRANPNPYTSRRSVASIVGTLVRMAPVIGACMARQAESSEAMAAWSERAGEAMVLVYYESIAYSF
UniProt P59665, residues 65-94: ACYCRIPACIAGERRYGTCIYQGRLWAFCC

These are yes or no findings as the source states them, for the method shown. Some binding calls cover weakened binding; strength is not graded here.

The target in experiment [1] is recombinant PTS1, His-tag enzymatically removed (Bordetella pertussis) (UniProt P04977). The experiment can be described thus: far-Western, overlay or dot blot; both purified.
Experiment [2] concerns the target recombinant PTS1 with N-terminal 6x His-tag (Bordetella pertussis) (UniProt P04977). The experiment can be described thus: far-Western, overlay or dot blot; both purified.

Turning to “human α-defensin-1 (from UniProt P59665 65-94) (peptide)”, the binding result in experiment [1] and in experiment [2] was “binds” throughout.
